Values from PubChem BioAssay AID1159584 (Peter MacCallum Cancer Centre, 2016)

- Aim: 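Knock-downs that harm CDH1-null cells more than parental MCF10A cells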 (primary screen)
- System: human MCF10A breast epithelial cells, parental and CDH1-null
- Reagent: siRNA against human genes
- Detection: 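Cell viability by CellTiter-Glo ATP luminescence, each line scaled to the mean of mock wells across plates, then CDH1-null over parental ratio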
- Reading the numbers: CDH1-null / parental viability ratio: higher = CDH1-null cells survive relatively better than parental; CDH1-null viability vs mock: higher = more viable CDH1-null cells; parental viability vs mock: higher = more viable parental cells
This is an unselected part of about 18,000 reagents. The record does not give: the amount of reagent, the time to read-out.

CDH1-null / parental viability ratio | CDH1-null viability vs mock (fraction of mock) | parental viability vs mock (fraction of mock) | Gene
1.08 | 0.41 | 0.38 | CAP2
1.06 | 0.9 | 0.85 | ARL16
0.97 | 0.62 | 0.64 | PPP1R26
0.86 | 0.55 | 0.64 | RABL6
1.03 | 1.05 | 1.02 | ACSBG1
1.21 | 0.91 | 0.75 | NUDCD2
1.22 | 0.9 | 0.74 | NUBP2
0.84 | 0.66 | 0.79 | HLA-DQA1
0.61 | 0.51 | 0.84 | PCDHB9
1.14 | 1.19 | 1.04 | OR5H1
0.97 | 0.56 | 0.58 | ASMTL
0.86 | 0.74 | 0.86 | TRIB2
1.17 | 0.75 | 0.64 | ASAH2
0.94 | 1 | 1.06 | TMTC1
1.14 | 1.05 | 0.92 | HES2
1.02 | 0.86 | 0.84 | HECTD1
1.05 | 0.6 | 0.57 | GPATCH3
1.34 | 0.79 | 0.59 | NT5E
0.98 | 0.88 | 0.9 | CAPS
1.1 | 0.92 | 0.84 | METAP1
1.04 | 1.02 | 0.98 | EDEM1
1.18 | 0.59 | 0.5 | ZSCAN32
2.16 | 0.82 | 0.38 | CSTF2T
0.97 | 0.91 | 0.94 | SLC2A1
0.96 | 1 | 1.04 | ABCG1
1.03 | 1.06 | 1.03 | LARGE2
0.63 | 0.36 | 0.57 | PMVK
1.09 | 0.96 | 0.88 | PNMA1
0.94 | 0.5 | 0.53 | OR2T10
0.84 | 0.48 | 0.57 | EGLN3
1.02 | 0.54 | 0.53 | CASQ2
0.94 | 0.94 | 1 | SCARF2
1.21 | 1.17 | 0.97 | AICDA
0.83 | 0.6 | 0.72 | PAPOLA
1.08 | 0.65 | 0.6 | POLDIP2
1.22 | 0.77 | 0.63 | TCERG1L
1.14 | 1.21 | 1.06 | TYRP1
0.91 | 0.75 | 0.82 | LRP4
1.46 | 0.7 | 0.48 | RHOA
1.29 | 0.75 | 0.58 | NAGA
0.87 | 0.9 | 1.04 | HYAL2
1.11 | 0.92 | 0.83 | TBC1D8
0.9 | 0.77 | 0.86 | CREG1
1.27 | 0.56 | 0.44 | TRAF2
1.07 | 0.94 | 0.88 | FAM47B
0.77 | 0.57 | 0.74 | NLRP1
0.91 | 1.04 | 1.14 | A1CF
0.75 | 0.68 | 0.91 | TRIM23
1 | 1.06 | 1.06 | ITGAL
1.06 | 0.82 | 0.77 | PGGT1B
1.09 | 0.98 | 0.9 | CD68
0.87 | 0.52 | 0.6 | GNGT1
1.28 | 0.73 | 0.57 | MYH6
0.98 | 0.86 | 0.88 | HS6ST1
1.84 | 0.7 | 0.38 | C11orf16
0.86 | 0.96 | 1.12 | ADGRG6
0.87 | 0.35 | 0.4 | VPS54
1.28 | 0.78 | 0.61 | TMEM158
1.07 | 0.81 | 0.76 | TAOK2
0.87 | 0.85 | 0.98 | NCOR1
0.94 | 0.74 | 0.79 | COMT
1.08 | 0.82 | 0.76 | GORASP2
0.99 | 0.79 | 0.8 | PELI3
0.74 | 0.37 | 0.5 | TMEM254
0.91 | 0.5 | 0.55 | SLC45A1
0.89 | 0.7 | 0.79 | ZNF180
0.94 | 0.9 | 0.96 | CDH17
1.21 | 1.1 | 0.91 | TJP3
